Measurements as given in article PMC11538284.
Results are given in words; binding and its absence hold for the method and conditions named. In cells and extracts the contact can be indirect. Some binding calls cover weakened binding; strength is not graded here. For some assays here: Where a sequence is shown, tags or fusion partners need not be part of it. Each block holds one molecule with its values, some of them ahead of it.

The chains behind the UniProt entries cited, without tags or fusion partners. Where a name states a change or a piece, a line headed by the entry shows the natural chain unless it says otherwise.
UniProt O60264: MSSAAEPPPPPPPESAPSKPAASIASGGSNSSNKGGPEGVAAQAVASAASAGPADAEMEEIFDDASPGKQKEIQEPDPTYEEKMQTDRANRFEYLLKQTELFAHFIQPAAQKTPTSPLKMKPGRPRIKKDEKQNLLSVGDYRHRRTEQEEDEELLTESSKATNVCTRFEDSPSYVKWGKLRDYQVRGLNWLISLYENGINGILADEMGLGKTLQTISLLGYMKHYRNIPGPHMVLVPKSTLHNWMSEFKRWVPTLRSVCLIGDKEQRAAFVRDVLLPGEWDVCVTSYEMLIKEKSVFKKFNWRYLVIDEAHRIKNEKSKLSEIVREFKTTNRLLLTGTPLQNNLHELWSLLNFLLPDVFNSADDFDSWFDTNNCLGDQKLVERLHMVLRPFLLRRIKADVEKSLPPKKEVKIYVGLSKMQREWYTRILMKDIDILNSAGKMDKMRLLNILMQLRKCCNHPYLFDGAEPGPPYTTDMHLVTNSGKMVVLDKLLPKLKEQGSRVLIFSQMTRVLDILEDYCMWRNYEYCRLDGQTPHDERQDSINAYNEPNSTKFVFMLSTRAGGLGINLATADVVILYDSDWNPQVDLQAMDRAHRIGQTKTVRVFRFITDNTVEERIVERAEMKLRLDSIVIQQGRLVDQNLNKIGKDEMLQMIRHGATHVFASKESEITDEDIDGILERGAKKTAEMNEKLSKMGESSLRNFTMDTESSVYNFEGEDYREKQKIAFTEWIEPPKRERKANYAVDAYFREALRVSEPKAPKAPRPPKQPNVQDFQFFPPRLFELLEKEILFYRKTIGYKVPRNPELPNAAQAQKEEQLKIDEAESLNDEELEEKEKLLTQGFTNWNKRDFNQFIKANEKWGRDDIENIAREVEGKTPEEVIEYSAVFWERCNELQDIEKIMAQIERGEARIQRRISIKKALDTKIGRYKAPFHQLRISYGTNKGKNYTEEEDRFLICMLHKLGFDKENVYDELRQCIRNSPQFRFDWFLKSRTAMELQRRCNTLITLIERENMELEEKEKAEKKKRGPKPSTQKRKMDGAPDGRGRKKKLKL

Assays:
[1] = target: T1, Flag-tagged full-length USP3 (in HEK293T cells) (UniProt Q9Y6I4); experiment: co-IP; HEK293T cells co-transfected with HA- and Flag-tagged constructs, cell lysates subjected to IP and detected with the indicated antibodies
T1 sequence: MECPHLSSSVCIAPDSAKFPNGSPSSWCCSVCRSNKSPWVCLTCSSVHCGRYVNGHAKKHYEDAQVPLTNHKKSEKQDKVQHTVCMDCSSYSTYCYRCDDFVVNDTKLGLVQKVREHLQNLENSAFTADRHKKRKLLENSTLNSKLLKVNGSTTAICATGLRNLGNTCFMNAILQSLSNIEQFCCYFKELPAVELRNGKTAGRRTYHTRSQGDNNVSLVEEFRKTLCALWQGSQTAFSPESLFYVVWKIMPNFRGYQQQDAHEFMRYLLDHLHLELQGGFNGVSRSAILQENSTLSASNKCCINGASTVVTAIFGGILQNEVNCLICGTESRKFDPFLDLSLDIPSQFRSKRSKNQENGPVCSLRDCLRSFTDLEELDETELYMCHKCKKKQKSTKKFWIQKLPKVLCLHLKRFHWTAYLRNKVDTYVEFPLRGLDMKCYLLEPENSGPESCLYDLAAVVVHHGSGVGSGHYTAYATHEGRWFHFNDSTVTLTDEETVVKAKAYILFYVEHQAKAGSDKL

[2] = target: T2, Ubiquitin-specific protease 3 (USP3), endogenous (human (endogenous in PC3)) (UniProt Q9Y6I4); experiment: co-IP; endogenous USP3 and SMARCA5 in PC3 cells
T2 sequence: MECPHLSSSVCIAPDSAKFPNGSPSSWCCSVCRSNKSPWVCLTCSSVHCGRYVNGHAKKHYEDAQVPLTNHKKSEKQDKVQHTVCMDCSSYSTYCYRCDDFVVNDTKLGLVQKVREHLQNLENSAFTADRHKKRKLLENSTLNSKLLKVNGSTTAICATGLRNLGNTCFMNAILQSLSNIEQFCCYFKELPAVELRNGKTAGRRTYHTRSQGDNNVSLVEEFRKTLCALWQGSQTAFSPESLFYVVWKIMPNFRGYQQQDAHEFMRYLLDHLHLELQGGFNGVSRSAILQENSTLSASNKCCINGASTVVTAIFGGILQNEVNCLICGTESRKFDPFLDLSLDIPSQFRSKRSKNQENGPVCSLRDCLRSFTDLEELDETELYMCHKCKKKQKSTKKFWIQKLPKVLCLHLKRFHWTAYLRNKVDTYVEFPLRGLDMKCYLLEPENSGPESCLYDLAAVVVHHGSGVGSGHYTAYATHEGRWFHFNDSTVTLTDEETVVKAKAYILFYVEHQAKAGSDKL

[3] = target: T3, Flag-tagged USP3 (in PC3 cells) (UniProt Q9Y6I4); experiment: co-IP; Flag-tagged USP3 or HA-tagged SMARCA5 expressed in PC3 cells, endogenous partner detected
T3 sequence: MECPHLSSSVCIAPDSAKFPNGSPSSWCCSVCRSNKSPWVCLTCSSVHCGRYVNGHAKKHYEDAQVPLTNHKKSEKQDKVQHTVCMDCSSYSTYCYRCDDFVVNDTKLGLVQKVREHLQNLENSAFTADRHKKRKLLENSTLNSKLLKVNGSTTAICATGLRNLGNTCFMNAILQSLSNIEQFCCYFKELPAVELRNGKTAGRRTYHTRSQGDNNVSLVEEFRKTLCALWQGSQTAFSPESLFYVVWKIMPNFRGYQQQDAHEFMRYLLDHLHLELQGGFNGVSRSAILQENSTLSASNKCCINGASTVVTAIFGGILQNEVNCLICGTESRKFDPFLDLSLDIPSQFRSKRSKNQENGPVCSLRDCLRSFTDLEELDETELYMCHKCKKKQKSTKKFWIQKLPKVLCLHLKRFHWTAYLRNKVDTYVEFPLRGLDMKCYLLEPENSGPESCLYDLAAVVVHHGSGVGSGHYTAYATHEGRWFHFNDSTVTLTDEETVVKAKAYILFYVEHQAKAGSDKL

[4] = target: HA-tagged full-length SMARCA5 (in HEK293T cells) (UniProt O60264); experiment: co-IP; HEK293T cells co-transfected with HA- and Flag-tagged constructs, cell lysates subjected to IP and detected with the indicated antibodies
[5] = target: HA-tagged SMARCA5 (in PC3 cells) (UniProt O60264); experiment: co-IP; Flag-tagged USP3 or HA-tagged SMARCA5 expressed in PC3 cells, endogenous partner detected

- binding [1]: binds
Molecule: HA-tagged SMARCA5 deletion mutant (487-638), Helicase C-terminal (from UniProt O60264 487-638) (domain or fragment)

- binding [2]: binds
- binding [3]: binds
Molecule: SMARCA5, SWI/SNF-related matrix-associated actin-dependent regulator of chromatin subfamily A member 5, endogenous (from UniProt O60264 1-1052) (enzyme)

- binding [4]: binds
B1: Flag-tagged USP3 UCH domain (deletion mutant) (domain or fragment, UniProt Q9Y6I4 159-520)
chain: TGLRNLGNTCFMNAILQSLSNIEQFCCYFKELPAVELRNGKTAGRRTYHTRSQGDNNVSLVEEFRKTLCALWQGSQTAFSPESLFYVVWKIMPNFRGYQQQDAHEFMRYLLDHLHLELQGGFNGVSRSAILQENSTLSASNKCCINGASTVVTAIFGGILQNEVNCLICGTESRKFDPFLDLSLDIPSQFRSKRSKNQENGPVCSLRDCLRSFTDLEELDETELYMCHKCKKKQKSTKKFWIQKLPKVLCLHLKRFHWTAYLRNKVDTYVEFPLRGLDMKCYLLEPENSGPESCLYDLAAVVVHHGSGVGSGHYTAYATHEGRWFHFNDSTVTLTDEETVVKAKAYILFYVEHQAKAGSDKL

- binding [5]: binds
B2: Ubiquitin-specific protease 3 (USP3), endogenous (enzyme, UniProt Q9Y6I4 1-520)
chain: MECPHLSSSVCIAPDSAKFPNGSPSSWCCSVCRSNKSPWVCLTCSSVHCGRYVNGHAKKHYEDAQVPLTNHKKSEKQDKVQHTVCMDCSSYSTYCYRCDDFVVNDTKLGLVQKVREHLQNLENSAFTADRHKKRKLLENSTLNSKLLKVNGSTTAICATGLRNLGNTCFMNAILQSLSNIEQFCCYFKELPAVELRNGKTAGRRTYHTRSQGDNNVSLVEEFRKTLCALWQGSQTAFSPESLFYVVWKIMPNFRGYQQQDAHEFMRYLLDHLHLELQGGFNGVSRSAILQENSTLSASNKCCINGASTVVTAIFGGILQNEVNCLICGTESRKFDPFLDLSLDIPSQFRSKRSKNQENGPVCSLRDCLRSFTDLEELDETELYMCHKCKKKQKSTKKFWIQKLPKVLCLHLKRFHWTAYLRNKVDTYVEFPLRGLDMKCYLLEPENSGPESCLYDLAAVVVHHGSGVGSGHYTAYATHEGRWFHFNDSTVTLTDEETVVKAKAYILFYVEHQAKAGSDKL
